Source: publication PMC6395731
These are yes or no findings as the source states them, for the method shown.

Sequences of proteins named here, by UniProt entry; tags and fusion partners are left off. Residues count along the entry.
UniProt P18887, residues 219-415: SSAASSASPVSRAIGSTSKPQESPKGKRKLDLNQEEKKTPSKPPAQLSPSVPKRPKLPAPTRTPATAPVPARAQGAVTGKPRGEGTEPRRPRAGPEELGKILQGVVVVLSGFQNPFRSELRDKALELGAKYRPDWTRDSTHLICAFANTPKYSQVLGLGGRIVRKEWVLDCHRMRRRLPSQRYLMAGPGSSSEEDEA

Molecular target: XRCC1 central DNA binding domain (CDB, residues 219-415) (human) (UniProt P18887)
Experiment: SAXS; XRCC1 219-415 alone at 266, 201, 187 and 93 µM in 20 mM Tris pH 8.0, 100 mM KCl, 3 mM 2-mercaptoethanol, 10 °C; molecular weight from the volume of correlation; both purified

- binding: no binding (tested: 93-266 µM)
Substance: XRCC1 central DNA binding domain (CDB, residues 219-415) (from UniProt P18887 219-415) (domain or fragment)
